Data as given in PubChem BioAssay AID1259308 (NCATS, 2017).

Screen: 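Knock-downs that increase output of a recombinant reporter protein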 (primary screen)
Cell system: human HEK293 embryonic kidney cells stably expressing firefly luciferase (HEK-CMV-Luc2-Hygro)
Reagent: single siRNA against human genes, 0.8 pmol siRNA per well
Time to read-out: 72 h
Measurement: 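Luciferase light (ONE-Glo) measured on one replicate plate set and viability (CellTiter-Glo) on the other, scaled to a negative control siRNA, with robust z-scores and luciferase per cell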
Reading the numbers: total luciferase, z-score and total luciferase, % of control: higher = more reporter protein produced; luciferase per cell, z-score: higher = more reporter output per viable cell; viable cells, % of control: higher = more viable cells
Call rule: 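Active when the median/MAD z-score for overall luciferase is greater than 3; a gene was taken forward for validation with new siRNAs if at least two of its three siRNAs passed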
Meaning of the calls: active = raised luciferase; inactive = no rise
Here is a random part of about 59,000 deposited reagents. Of all reagents, about 1,510 (2.6%) are marked active. 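Calls use total luciferase alone and ignore viability, so some active siRNAs may act by altering cell number.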 Reagents against one gene are numbered here.

Gene | reagent no. | total luciferase, z-score | total luciferase, % of control | luciferase per cell, z-score | viable cells, % of control | call
APOBEC3D | 1 | -1.07 | 60.6 | -0.952 | 87 | inactive
APOBEC3D | 2 | -1.33 | 55.5 | -1.14 | 83.8 | inactive
APOBEC3D | 3 | 0.0605 | 83.1 | 0.175 | 88.7 | inactive
LINC02523 | 1 | 1.26 | 107 | 0.65 | 101 | inactive
LINC02523 | 2 | 0.422 | 90.3 | 0.402 | 90.7 | inactive
LINC02523 | 3 | 0.0658 | 83.2 | -0.302 | 101 | inactive
DNASE2 | 1 | -2.78 | 26.5 | -2.75 | 61.2 | inactive
DNASE2 | 2 | -0.21 | 77.7 | -0.173 | 90.9 | inactive
DNASE2 | 3 | 1.08 | 103 | 2.77 | 55.6 | inactive
P2RY14 | 1 | 0.487 | 91.6 | 0.583 | 87.8 | inactive
P2RY14 | 2 | 0.0383 | 82.6 | -0.151 | 96.1 | inactive
P2RY14 | 3 | -1.36 | 54.9 | -1.25 | 85.1 | inactive
IL17B | 1 | 0.0286 | 82.5 | 0.000581 | 92.1 | inactive
IL17B | 2 | -0.0179 | 81.5 | 0.184 | 86.8 | inactive
IL17B | 3 | 2.11 | 124 | 1.4 | 95.7 | inactive
PFDN2 | 1 | -2.02 | 41.8 | -1.59 | 70.9 | inactive
PFDN2 | 2 | 3.12 | 144 | 3.18 | 69.7 | active
PFDN2 | 3 | -1.57 | 50.6 | -1.85 | 91.9 | inactive
SUSD1 | 1 | 0.424 | 90.3 | 0.593 | 86.3 | inactive
SUSD1 | 2 | -0.429 | 73.4 | -0.0256 | 82.5 | inactive
SUSD1 | 3 | -1.27 | 56.6 | -1.18 | 86.2 | inactive
SWI5 | 1 | 0.529 | 92.4 | -0.475 | 117 | inactive
SWI5 | 2 | 0.811 | 98 | 1.27 | 78.5 | inactive
SWI5 | 3 | 0.101 | 83.9 | 0.344 | 85.6 | inactive
SMURF2 | 1 | 0.872 | 99.2 | 0.31 | 102 | inactive
SMURF2 | 2 | -0.684 | 68.3 | -1.2 | 105 | inactive
SMURF2 | 3 | 0.237 | 86.6 | 0.0488 | 95.5 | inactive
MEF2D | 1 | 1.69 | 115 | 1.78 | 80.7 | inactive
MEF2D | 2 | -0.573 | 70.5 | -0.605 | 92.4 | inactive
MEF2D | 3 | -0.476 | 72.4 | 0.172 | 77.3 | inactive
TMEM145 | 1 | 0.0182 | 82.2 | -0.0377 | 92.8 | inactive
TMEM145 | 2 | 1.03 | 102 | 0.743 | 94 | inactive
TMEM145 | 3 | -1.9 | 44.1 | -2.45 | 94.1 | inactive
RAB3C | 1 | -0.607 | 69.8 | -0.847 | 97.5 | inactive
RAB3C | 2 | 1.37 | 109 | 0.525 | 106 | inactive
RAB3C | 3 | 2.94 | 140 | 1.75 | 98.8 | inactive
LINC01120 | 1 | -2.61 | 29.9 | -2.4 | 63 | inactive
LINC01120 | 2 | 0.401 | 89.9 | 0.477 | 88.6 | inactive
LINC01120 | 3 | 1.05 | 103 | 2.41 | 60.9 | inactive
LILRB3 | 1 | -0.621 | 69.5 | 0.466 | 68.7 | inactive
LILRB3 | 2 | 0.35 | 88.8 | -0.167 | 104 | inactive
LILRB3 | 3 | 3.01 | 142 | 2.45 | 83 | active
NUP210L | 1 | -0.721 | 67.5 | -1.11 | 101 | inactive
NUP210L | 2 | -0.28 | 76.3 | -0.254 | 91.2 | inactive
NUP210L | 3 | 0.00191 | 81.9 | -0.327 | 99.8 | inactive
NAA35 | 1 | -0.471 | 72.5 | -1.02 | 106 | inactive
NAA35 | 2 | 0.349 | 88.8 | -0.0821 | 101 | inactive
NAA35 | 3 | 0.537 | 92.6 | 0.804 | 83.7 | inactive
GTPBP10 | 1 | 0.724 | 96.3 | 1.03 | 82.1 | inactive
GTPBP10 | 2 | -1.22 | 57.6 | -0.29 | 69.4 | inactive
GTPBP10 | 3 | -1.95 | 43.1 | -2.54 | 94.1 | inactive
MYLK3 | 1 | -1.11 | 59.9 | -0.345 | 73.3 | inactive
MYLK3 | 2 | -1.71 | 47.9 | -1.64 | 82.4 | inactive
MYLK3 | 3 | -0.521 | 71.5 | -0.808 | 98.9 | inactive
CDH20 | 1 | 1.11 | 104 | 0.568 | 99.9 | inactive
CDH20 | 2 | -0.337 | 75.2 | -0.00169 | 84.1 | inactive
CDH20 | 3 | 3.96 | 161 | 3 | 81.5 | active

Just “total luciferase, % of control” (3 entries from above):
LINC02523 #3	83.2
DNASE2 #1	26.5
DNASE2 #2	77.7
